Results as given in PMC4402694.

Legend:
GST-Kap123 = biological target: T1, GST-Kap123 (UniProt P40069); experiment: pull-down; GST fusion immobilised on GSH-Sepharose in PBSKMT, incubated with one purified protein (2 µM His6-Ran variant, or 0.5 µM Slx9 or Slx9-1) for 1 hr at 4°C, competing E. coli lysates present; Coomassie or Western; both purified
T1 sequence: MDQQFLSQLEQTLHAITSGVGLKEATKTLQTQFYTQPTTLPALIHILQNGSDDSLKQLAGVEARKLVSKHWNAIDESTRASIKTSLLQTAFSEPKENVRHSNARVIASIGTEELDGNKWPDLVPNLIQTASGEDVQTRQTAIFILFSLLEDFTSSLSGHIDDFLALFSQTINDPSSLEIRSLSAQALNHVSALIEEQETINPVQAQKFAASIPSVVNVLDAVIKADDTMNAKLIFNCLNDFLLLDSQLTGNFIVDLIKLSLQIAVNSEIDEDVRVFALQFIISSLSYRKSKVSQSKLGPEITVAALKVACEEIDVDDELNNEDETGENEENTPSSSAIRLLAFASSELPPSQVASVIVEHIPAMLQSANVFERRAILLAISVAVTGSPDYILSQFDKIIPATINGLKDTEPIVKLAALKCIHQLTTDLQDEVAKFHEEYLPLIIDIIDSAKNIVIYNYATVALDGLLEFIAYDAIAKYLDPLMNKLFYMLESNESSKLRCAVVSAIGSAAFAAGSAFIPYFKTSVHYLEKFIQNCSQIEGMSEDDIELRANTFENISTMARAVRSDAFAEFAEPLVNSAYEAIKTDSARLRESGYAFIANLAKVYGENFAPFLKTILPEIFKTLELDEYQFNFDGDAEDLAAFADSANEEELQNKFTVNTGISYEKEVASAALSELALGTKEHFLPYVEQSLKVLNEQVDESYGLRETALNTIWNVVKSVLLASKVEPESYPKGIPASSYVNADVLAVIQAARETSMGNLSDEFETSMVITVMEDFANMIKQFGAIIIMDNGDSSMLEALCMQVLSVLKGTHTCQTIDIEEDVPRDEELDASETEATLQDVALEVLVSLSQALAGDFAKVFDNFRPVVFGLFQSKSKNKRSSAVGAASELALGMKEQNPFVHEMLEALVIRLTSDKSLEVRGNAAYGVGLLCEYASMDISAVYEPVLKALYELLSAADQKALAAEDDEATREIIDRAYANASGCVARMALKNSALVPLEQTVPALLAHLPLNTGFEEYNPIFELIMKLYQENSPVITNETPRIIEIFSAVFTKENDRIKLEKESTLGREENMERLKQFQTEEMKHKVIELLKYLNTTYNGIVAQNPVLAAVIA

[1] = biological target: T2, GST-Slx9 (yeast (S. cerevisiae)) (UniProt P53251); experiment: as above
T2 sequence: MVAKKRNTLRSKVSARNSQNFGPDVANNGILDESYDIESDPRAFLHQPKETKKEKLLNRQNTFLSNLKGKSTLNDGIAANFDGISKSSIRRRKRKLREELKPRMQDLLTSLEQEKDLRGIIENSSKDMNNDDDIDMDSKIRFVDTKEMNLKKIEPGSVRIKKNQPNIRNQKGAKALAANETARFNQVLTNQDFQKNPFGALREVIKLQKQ

[2] = biological target: T2, GST-Slx9 (yeast (S. cerevisiae)); experiment: pull-down; GST-Slx9 immobilised on GSH-Sepharose, incubated with excess of Rio2, unbound Rio2 washed away

| Substance | binding (GST-Kap123) | binding [1] | binding [2] |
| --- | --- | --- | --- |
| His6-Ran∆C^QLGTP (yeast (S. cerevisiae)) (domain or fragment) | binds | binds | – |
| Rio2 (added in excess to GST-Slx9, Figure 5C) (yeast (S. cerevisiae)) | – | – | binds |

These are yes or no findings as the source states them, for the method shown. In cells and extracts the contact can be indirect. Binding calls can cover weak binding; strength is not graded here. Sequences can lack the tags named with a protein.
